Some of the results follow.

The subject of this test is T1, CTL2-GFP (C. trachomatis L2/434/Bu, GFP-expressing).
T1 construct: L2/434/Bu, GFP-expressing
More on the design: species or system HeLa; Intracellular C. trachomatis growth in HeLa cells, bulk GFP fluorescence relative to DMSO. The settings on record: bulk GFP, single well; 28.5 h, 10 µM; inhibitor.
`CCn1nc(C)c(-c2cncn2CC(C)n2nc(C)cc2C)c1C` (stereo not drawn) [CBK281777]: the “% of control remaining” value was determined as 136.584%.

Consider `Nc1ncc(-c2ccco2)nc1NCc1ccco1` [CBK063682], for which the “% of control remaining” value is recorded as 161.644%.

Consider `O/N=C1/c2ccccc2/C(=N/O)C1c1ccccc1` [CBK261122], for which the “% of control remaining” value was found to be 100.423%.

On to `O=S(=O)(Nc1ccc(C(O)(C(F)(F)F)C(F)(F)F)cc1)c1cccc2nsnc12` [CBK062096], for which the “% of control remaining” value turned out to be 145.44%.

`O=C(NNC(=S)NCCc1ccccc1)c1ccc(Br)o1` [CBK266818]: the “% of control remaining” value stood at 122.175%.

`Cc1cc2ccccc2n1CCCNS(=O)(=O)c1ccc2[nH]c(=O)[nH]c(=O)c2c1` [CBK286362]: the “% of control remaining” value came out at 109.733%.

Regarding `Cc1csc(SC(C)C(=O)N2CCc3ccccc32)n1` (stereo not drawn) [CBK305909], the “% of control remaining” value came out at 49.4866%.

Consider `O=C(O)CCC(=O)N1CCC(c2nnc3ccccn23)CC1` [CBK287920], for which the “% of control remaining” value turned out to be 135.272%.

Turning to `CC(C)(C)OC(=O)NC1CCc2ccccc2N(Cc2ccccc2)C1=O` (stereo not drawn) [CBK013366], the “% of control remaining” value was 101.482%.

In the case of `O=C(CN1C(=O)N2CCCN=C2c2ccccc21)N1CCCCCC1` [CBK284399], the “% of control remaining” value is recorded as 119.372%.

Regarding `CC(=O)N(Cc1cccnc1)c1nc2cc3c(cc2s1)OCCO3` [CBK287696], the “% of control remaining” value is 138.182%.

For `c1ccc(Cn2c3ccccc3c3nnc(SCc4ccc5nonc5c4)nc32)cc1` [CBK267517], the “% of control remaining” value was found to be 144.082%.

On to `COC(=O)c1sccc1NC(=O)c1ccc(F)cc1Cl` [CBK270325], for which the “% of control remaining” value was determined as 148.897%.

`CN(C(=O)CSc1nnn(C)n1)c1ccccc1` [CBK058129]: the “% of control remaining” value is recorded as 116.079%.

With `COc1ccc(Cl)cc1N1CCN(Cc2ncc[nH]2)CC1` [CBK126418], the “% of control remaining” value is on record as 111.339%.

In the case of `O=C(CN1CCN(c2ccccc2)CC1)Nc1ccc(Cl)cc1C(=O)c1ccccc1` [CBK265827], the “% of control remaining” value came out at 162.111%.

Take `Fc1ccccc1COc1cccc(CNCc2ccccn2)c1` [CBK268552C]: the “% of control remaining” value was found to be 98.1287%.

As to `O=[N+]([O-])c1ccc(/C=N/c2ccc(Cc3ccc(/N=C/c4ccc([N+](=O)[O-])s4)cc3)cc2)s1` [CBK261228], the “% of control remaining” value is listed as 115.549%.

For `CNC(=O)c1ccc(-c2cnc(NCC3CCN(C(=O)OC(C)(C)C)CC3)cn2)cc1` [CBK173726], the “% of control remaining” value is reported as 121.698%.

Turning to `CCOC(=O)c1sc(NS(=O)(=O)c2cccc3cccnc23)nc1C` [CBK047443], the “% of control remaining” value was determined as 104.327%.

As to `CCCNc1nc(-c2cccc(O)c2)cn2ccnc12` [CBK066395], the “% of control remaining” value came to 102.841%.

`COc1ccc(-c2nc(NC(=O)CSc3n[nH]c(N)n3)ns2)cc1` [CBK267236]: the “% of control remaining” value was found to be 174.938%.

Turning to `COc1ccc(-c2ccc(OC)cc2C(=O)Nc2ccc3c(c2)N(C)C(=O)CO3)cc1` [CBK285650], the “% of control remaining” value was 92.3437%.

In the case of `COC(=O)c1cn([C@H]2CO[C@H]3[C@@H]2OC[C@@H]3NS(=O)(=O)Cc2ccccc2)nn1` [CBK289498], the “% of control remaining” value was determined as 135.357%.

As to `O=C(O)C(CC1COc2ccccc2O1)C(=O)O` (stereo not drawn) [CBK276280], the “% of control remaining” value was 145.52%.

Turning to `O=C(NCCc1c[nH]cn1)NC12CC3CC(CC(C3)C1)C2` [CBK269880], the “% of control remaining” value was determined as 114.987%.

Take `CCOC(=O)C1CCCCN1Cc1ccc(OC)c(O)c1` (stereo not drawn) [CBK261560]: the “% of control remaining” value was determined as 110.023%.

As to `CC(=O)[C@H]1C[C@@H](CC(=O)N2CCN(c3ccc(C(F)(F)F)cc3)CC2)C1(C)C` [CBK091330], the “% of control remaining” value is listed as 102.108%.

With `O=C(C[C@@H]1CCNC[C@@H]1Cc1cc(-c2ccccc2)on1)NC1CC1` [CBK289146], the “% of control remaining” value is on record as 111.825%.

For `Cc1ncc(S(=O)(=O)N2CCC(OCc3ccncc3)C2)s1` (stereo not drawn) [CBK305483], the “% of control remaining” value came out at 90.3468%.

With `Clc1ccc(SCCCSc2ncccn2)cc1` [CBK266400], the “% of control remaining” value was 169.89%.

In the case of `Cc1nc2cc(C(=O)N3CCCCC3CN3CCOCC3)ccc2[nH]1` (stereo not drawn) [CBK304219], the “% of control remaining” value was determined as 106.04%.

As for `Clc1ccc(C2N(Cc3ccccc3)CCC3CCCCN32)cc1Cl` (stereo not drawn) [CBK028769], the “% of control remaining” value was 100%.

With `Cc1ccc(S(=O)(=O)Nc2sccc2C(=O)O)cc1` [CBK042244], the “% of control remaining” value came out at 190.301%.

Regarding `CCOC(=O)N/N=C1\CCSc2sccc21` [CBK006300], the “% of control remaining” value is 86.362%.

Turning to `Clc1ccccc1CN1CCC(n2cnc3cccnc32)CC1` [CBK283967], the “% of control remaining” value came to 93.3447%.

On to `CCOc1cc(OCC)cc(C(=O)N2CCC3(CC2)CC(=O)c2ccc(OCC)cc2O3)c1` [CBK168014], for which the “% of control remaining” value is 112.196%.

For `CC(=O)N(C)c1nc(-c2ccccc2C)ccc1C(=O)N(C)C` [CBK106350], the “% of control remaining” value is given as 109.04%.

As to `COc1ccc(C(=O)Nc2cccnc2N2CCNCC2)cc1` [CBK029421T], the “% of control remaining” value came out at 96.521%.

Regarding `CCc1nn(CC(=O)N2CCCCC2)c(=O)c2cc3ccsc3n12` [CBK284119], the “% of control remaining” value is given as 113.939%.

For `O=C(O)c1csc(S(=O)(=O)Nc2ccccc2C(=O)Nc2ccc3c(c2)OCO3)c1` [CBK295655], the “% of control remaining” value turned out to be 132.702%.

Turning to `CC(C)C(CO)NC(=O)C1(Cc2ccc(-c3ccc(F)c(F)c3)cc2)CCOCC1` (stereo not drawn) [CBK286525], the “% of control remaining” value was determined as 102.245%.

`CC(C)(C)c1n[nH]c(C2CN(C(=O)CCc3ccco3)CCO2)n1` (stereo not drawn) [CBK305204]: the “% of control remaining” value is reported as 150.591%.

For `CCOc1ccc(NC(=O)CSc2nc3nc(C)cc(C)n3n2)cc1` [CBK268278], the “% of control remaining” value came to 88.8211%.

`Cc1cc(C(=O)CSc2nc(=O)cc(O)n2CC(C)C)c(C)n1C` [CBK295649]: the “% of control remaining” value was 132.696%.

For the compound `Cc1conc1C(=O)N1CCCCC1CN1CCOCC1` (stereo not drawn) [CBK304771], the “% of control remaining” value amounted to 86.9341%.

As for `CCOC(=O)c1sc(-c2ccc(Br)cc2)nc1O` [CBK075087], the “% of control remaining” value turned out to be 74.0288%.

`COc1ccc(CNc2nc(C)n[nH]2)cc1Cl` [CBK288036]: the “% of control remaining” value came out at 158.251%.

For `CCOC(=O)c1cccc(NS(=O)(=O)c2cc(Br)ccc2OC)c1` [CBK034336], the “% of control remaining” value came to 99.623%.

With `CC(C)(CC(=O)O)CC(=O)Nc1ccc(-c2nc3ccccc3s2)cc1` [CBK299796], the “% of control remaining” value is listed as 91.0921%.

For the compound `O=C(N/N=C\c1ccccc1C(F)(F)F)c1ccc(=O)[nH]n1` [CBK263389], the “% of control remaining” value is 113.73%.

For the origin of these results see PMC12040169 (PLOS Biology, 2025).
